Data: paper PMC3799435, “Dissecting the interactions of SERRATE with RNA and DICER-LIKE 1 in Arabidopsis microRNA precursor processing” (Nucleic Acids Research, 2013)
These are yes or no findings as the source states them, for the method shown. Sequences can lack the tags named with a protein.

Chains of the proteins cited; added tags and fusions are not shown.
UniProt Q9SP32: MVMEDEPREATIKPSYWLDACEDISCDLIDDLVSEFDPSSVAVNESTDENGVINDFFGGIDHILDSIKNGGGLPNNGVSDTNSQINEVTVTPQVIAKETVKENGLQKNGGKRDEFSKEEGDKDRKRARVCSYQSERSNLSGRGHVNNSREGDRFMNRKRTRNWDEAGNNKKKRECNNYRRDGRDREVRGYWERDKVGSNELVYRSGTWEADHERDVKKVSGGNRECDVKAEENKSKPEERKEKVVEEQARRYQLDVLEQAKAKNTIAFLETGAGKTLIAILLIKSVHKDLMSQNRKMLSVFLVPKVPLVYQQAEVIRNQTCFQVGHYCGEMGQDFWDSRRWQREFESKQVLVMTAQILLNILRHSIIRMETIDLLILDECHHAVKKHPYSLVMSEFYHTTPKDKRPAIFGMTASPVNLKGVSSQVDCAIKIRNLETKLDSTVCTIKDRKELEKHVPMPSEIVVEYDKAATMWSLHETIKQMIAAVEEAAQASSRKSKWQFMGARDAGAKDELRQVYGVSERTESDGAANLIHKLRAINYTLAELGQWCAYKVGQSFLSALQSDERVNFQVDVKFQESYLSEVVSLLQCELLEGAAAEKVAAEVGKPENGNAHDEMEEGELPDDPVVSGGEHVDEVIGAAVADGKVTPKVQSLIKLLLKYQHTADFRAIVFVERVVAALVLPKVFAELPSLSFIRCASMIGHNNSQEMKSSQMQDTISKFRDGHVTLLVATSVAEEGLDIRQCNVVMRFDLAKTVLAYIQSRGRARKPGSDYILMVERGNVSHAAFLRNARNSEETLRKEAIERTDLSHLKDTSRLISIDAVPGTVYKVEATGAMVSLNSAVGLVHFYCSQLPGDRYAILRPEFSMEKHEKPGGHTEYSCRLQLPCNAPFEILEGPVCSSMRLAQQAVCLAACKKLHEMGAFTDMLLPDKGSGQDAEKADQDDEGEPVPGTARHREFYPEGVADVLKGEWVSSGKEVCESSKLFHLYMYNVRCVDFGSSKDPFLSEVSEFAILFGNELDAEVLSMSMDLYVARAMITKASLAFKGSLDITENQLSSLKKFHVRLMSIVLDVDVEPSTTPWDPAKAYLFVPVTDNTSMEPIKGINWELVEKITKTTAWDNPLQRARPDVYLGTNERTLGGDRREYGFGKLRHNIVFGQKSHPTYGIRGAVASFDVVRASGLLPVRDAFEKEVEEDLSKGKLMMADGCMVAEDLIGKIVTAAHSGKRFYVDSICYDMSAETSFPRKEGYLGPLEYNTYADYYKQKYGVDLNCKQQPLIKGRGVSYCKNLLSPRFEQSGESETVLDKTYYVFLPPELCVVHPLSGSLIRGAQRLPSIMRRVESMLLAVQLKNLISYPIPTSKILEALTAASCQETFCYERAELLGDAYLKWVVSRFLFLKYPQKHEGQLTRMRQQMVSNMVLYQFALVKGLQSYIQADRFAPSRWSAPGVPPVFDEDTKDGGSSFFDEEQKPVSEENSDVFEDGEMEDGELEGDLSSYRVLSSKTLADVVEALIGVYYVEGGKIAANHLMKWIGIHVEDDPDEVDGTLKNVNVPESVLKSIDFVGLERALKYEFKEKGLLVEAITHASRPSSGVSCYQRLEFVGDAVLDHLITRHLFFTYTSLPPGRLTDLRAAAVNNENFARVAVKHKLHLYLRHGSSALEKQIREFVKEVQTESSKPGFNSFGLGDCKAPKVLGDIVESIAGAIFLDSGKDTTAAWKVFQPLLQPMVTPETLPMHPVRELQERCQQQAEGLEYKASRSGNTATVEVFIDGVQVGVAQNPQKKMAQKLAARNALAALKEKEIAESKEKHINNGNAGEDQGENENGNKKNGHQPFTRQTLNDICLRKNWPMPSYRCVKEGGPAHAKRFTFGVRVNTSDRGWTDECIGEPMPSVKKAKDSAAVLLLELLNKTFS

Assays:
[1] = biological target: DICER-LIKE 1 (DCL1), untagged recombinant (Arabidopsis thaliana) (UniProt Q9SP32); experiment: SPR; Biacore T100; about 1200 RU of DCL1 (injected at 16 nM) bound beforehand to 60 RU of biotin-labelled forked RNA on an SA chip; SE and its mutants then injected for 70 s at 20 nM; 20 mM Tris-HCl (pH 7.0), 50 mM NaCl, 2 mM β-ME, 0.005% surfactant P20; RU of mutants normalised to the RU of DCL1 bound; both purified
[2] = biological target: DICER-LIKE 1 (DCL1), untagged recombinant (Arabidopsis thaliana) (UniProt Q9SP32); experiment: SPR; Biacore T100; about 1750 RU of DCL1 immobilised via amine groups on a CM5 chip, no RNA; SE and its mutants injected for 70 s at 20 nM; 20 mM Tris-HCl (pH 7.0), 50 mM NaCl, 2 mM β-ME, 0.005% surfactant P20; both purified

B1: SEΔ497–547, hexahistidine-tagged SERRATE lacking the ZnF domain (protein, UniProt Q9ZVD0)
chain: MADVNLPPSDSVDNRLPEKSTSSSPPPPPPSSSLPQQEQEQDQQQLPLRRERDSRERRDERDIERPPPNRRERDRSPLPPPRRDYKRRPSLSPPPPYRDRRHSPPQRRSPPQKRYRRDDNGYDGRRGSPRGGYGPPDRRFGYDHGGGYDREMGGRPGYGDERPHGRFMGRYQDWEGGRGGYGDASNSGNPQRDGLMSYKQFIQELEDDILPSEAERRYQEYKSEYITTQKRAFFNTHKEEDWLKNKYHPTNLLSVIERRNDLAQKVAKDFLLDLQSGTLDLGPAVTALNKSGRTSEPNSEDEAAGVGKRKRHGMGGAKENELLSAAPKAPSFTSDPKRILTDVEQTQALVRKLDSEKKIEENVLQGSETEKSGREKLHSGSTGPVVIIRGLTSVKGLEGVELLDTLVTYLWRVHGLDYYGKVETNEAKGLRHVRAEGKVSDAKGDENESKFDSHWQERLKGQDPLEVMAAKEKIDAAATEALDPHVRKIRDEKYGWNAPGGQPATQQSGPRDRPIRRKPSMENRLRDDRGGRRERDGRANGNDRNDRSEDQQRGDNDGGNPGEVGYDAFGGQGGVHVPPFLSDINPPPMLMPVPGAGPLGPFVPAPPEVAMQMFRDPSGPNPPFEGSGRGGPAPFLLSPAFRQDPRRLRSYQDLDAPEEEVTVIDYRSL
- binding [1]: no binding (tested: 20 nM)
- binding [2]: no binding (tested: 20 nM)
